From article PMC7862700
This is a selection; strong and weak results do not stand in their true shares. At the low end of the ranking the order means little.

Sequences of proteins named here, by UniProt entry; tags and fusion partners are left off. A change or cut given only in a name is not applied to a line headed by its entry.
UniProt O43186: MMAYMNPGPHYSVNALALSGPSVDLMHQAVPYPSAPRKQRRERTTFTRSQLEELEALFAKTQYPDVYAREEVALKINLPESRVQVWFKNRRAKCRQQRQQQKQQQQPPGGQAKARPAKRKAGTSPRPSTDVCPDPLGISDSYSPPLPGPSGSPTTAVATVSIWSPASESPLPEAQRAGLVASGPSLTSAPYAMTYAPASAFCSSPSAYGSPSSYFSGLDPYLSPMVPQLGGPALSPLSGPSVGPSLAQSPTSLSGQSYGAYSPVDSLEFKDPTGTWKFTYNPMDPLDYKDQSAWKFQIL

Experiments:
Assay in all cases: DAPPL (digital affinity profiling via proximity ligation, sequencing)
Conditions in all cases: 10 mM Tris-HCl pH 7.5, 50 mM NaCl, 1 mM DTT, 4% glycerol, room temperature, 30 min; GST-TFs on glutathione beads, 16-mer random dsDNA library, 0.1% …; high values mean tight binding; double strand, one strand shown; scale: fold enrichment (6-mer frequency, TF over GST control)
FEV = target: T1, FEV (UniProt Q99581)
T1 sequence: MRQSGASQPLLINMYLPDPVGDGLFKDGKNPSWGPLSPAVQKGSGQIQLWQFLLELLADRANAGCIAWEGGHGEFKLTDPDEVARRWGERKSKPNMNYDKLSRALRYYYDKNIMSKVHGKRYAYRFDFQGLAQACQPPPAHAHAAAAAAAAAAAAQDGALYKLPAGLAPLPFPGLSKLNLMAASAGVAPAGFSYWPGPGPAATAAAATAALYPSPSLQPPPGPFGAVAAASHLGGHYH

CRX = CRX (UniProt O43186)
ELF5 = target: T2, ELF5 (UniProt Q9UKW6-2)
T2 sequence: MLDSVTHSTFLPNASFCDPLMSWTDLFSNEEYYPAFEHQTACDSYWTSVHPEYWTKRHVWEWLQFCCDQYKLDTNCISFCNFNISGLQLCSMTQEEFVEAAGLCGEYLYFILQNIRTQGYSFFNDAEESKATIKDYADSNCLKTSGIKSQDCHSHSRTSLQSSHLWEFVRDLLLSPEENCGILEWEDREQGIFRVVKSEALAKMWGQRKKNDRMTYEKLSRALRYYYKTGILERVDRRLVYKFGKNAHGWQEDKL

Row | Sequence | binding signal (FEV) | binding signal (CRX) | binding signal (ELF5)
1 | AAAGAG | 0.866 | 0.944 | 0.856
2 | CAGAGG | 0.57 | 0.565 | 0.602
3 | CGCAGG | 0.834 | 0.697 | 0.842
4 | TCGGAG | 0.182 | 0.183 | 0.171
5 | GTCAGA | 0.586 | 0.545 | 0.618
6 | CTCGGA | 0.822 | 0.787 | 0.785
7 | GAGGTC | 0.567 | 0.415 | 0.565
8 | AGGGTC | 0.864 | 0.651 | 0.82
9 | AGTCGC | 0.509 | 0.407 | 0.511
10 | GGCGCT | 0.703 | 0.676 | 0.714
11 | AGAGGT | 0.75 | 0.779 | 0.828
12 | GGTTGA | 0.709 | 0.61 | 0.734
13 | GGTCGA | 0.731 | 0.542 | 0.698
14 | TGGGGG | 0.716 | 0.655 | 0.726
15 | CATGTC | 0.772 | 0.514 | 0.767
16 | GTCTGA | 0.812 | 0.671 | 0.756
17 | AGAACG | 0.451 | 0.464 | 0.422
18 | AAGAGG | 0.739 | 0.862 | 0.923
19 | CTGAGA | 0.774 | 0.821 | 0.735
20 | GGAGGG | 0.309 | 0.267 | 0.306
21 | CGAGCC | 0.857 | 0.701 | 0.799
22 | GGCCGG | 0.808 | 0.344 | 0.523
23 | GGTGCG | 0.556 | 0.414 | 0.549
24 | AGGGCA | 0.858 | 0.677 | 0.789
25 | TCGGTC | 0.574 | 0.455 | 0.543
26 | GGAGTA | 0.341 | 0.32 | 0.346
27 | GATTGA | 0.875 | 1.11 | 0.786
28 | TGTCGA | 0.756 | 0.7 | 0.807
29 | GTAACG | 0.926 | 0.719 | 0.946
30 | CGTGCT | 0.772 | 0.662 | 0.832

A run of entries taken from the entries so far, as a working copy:
Row | Sequence | binding signal (FEV) | binding signal (CRX) | binding signal (ELF5)
9 | AGTCGC | 0.509 | 0.407 | 0.511
10 | GGCGCT | 0.703 | 0.676 | 0.714
11 | AGAGGT | 0.75 | 0.779 | 0.828
12 | GGTTGA | 0.709 | 0.61 | 0.734
13 | GGTCGA | 0.731 | 0.542 | 0.698
14 | TGGGGG | 0.716 | 0.655 | 0.726
15 | CATGTC | 0.772 | 0.514 | 0.767
16 | GTCTGA | 0.812 | 0.671 | 0.756
